The record followed here is patent publication US20050130898A1 (HIDECHIKA OKADA, published 2005).

These are yes or no findings as the source states them, for the method shown. Some entries that bind do so weakly or less than the wild type.

In experiment [1] the target is T1, Carboxypeptidase R (CPR) (human, UniProt Q96IY4 115-423).
T1 sequence (looked up): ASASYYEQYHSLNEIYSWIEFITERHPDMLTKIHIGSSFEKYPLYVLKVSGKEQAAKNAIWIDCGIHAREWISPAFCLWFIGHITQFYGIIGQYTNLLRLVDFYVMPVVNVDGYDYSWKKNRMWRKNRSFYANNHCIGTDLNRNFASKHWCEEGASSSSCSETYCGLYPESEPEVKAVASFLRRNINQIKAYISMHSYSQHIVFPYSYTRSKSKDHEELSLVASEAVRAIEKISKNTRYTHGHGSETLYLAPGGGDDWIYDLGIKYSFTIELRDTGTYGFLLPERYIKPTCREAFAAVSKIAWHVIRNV
Kind of experiment: circular dichroism of the mixture against the arithmetic sum of the single spectra, 4 C. A general note: Circular dichroism is the unequal absorption of left and right circularly polarised light.

Experiment [2] concerns the target T1, Carboxypeptidase R (CPR). Kind of experiment: enzyme kinetics.

As to CKPAKNARC (C-terminal amide (peptides prepared as amidated peptides)) [CPI-2KR (linear 9-mer peptide Cys-Lys-Pro-Ala-Lys-Asn-Ala-Arg-Cys)], the binding result in the experiment with Carboxypeptidase R (CPR) [1] and with Carboxypeptidase R (CPR) [2] was “binds” throughout.
